Laboratory results published in PubChem BioAssay (Tox21).
The shares of active, inactive and inconclusive entries below differ from those in the screen. Potencies beside an inconclusive call are fits to weak or partial responses and may not hold up. A structure can be active in one record and inactive in another. Calls of active or inactive are those of the source. Calls follow the shape of the full dose curve.

Target: Beta-2 adrenergic receptor (Homo sapiens) (UniProt P07550)
Assay: Adrenergic beta2 receptor (ADRB2) small molecule antagonists, cell-based qHTS assay (AID 1963592); also: nearly all actives have a fitted effect of over 50% in size
Details: CHO-ADRB2 cells, isoproterenol-stimulated cAMP HTRF ratio, 0.5 h; activity change, negative = inhibition: at 92.4 µM (top of the series) unless noted
Description: U.S. Tox21 Program National Center for Advancing Translational Sciences [NCATS] Division of Preclinical Innovation [DPI] U.S. Environmental Protection Agency [EPA] National Institutes of Environmental Health Sciences [NIEHS] National Toxicology Program [NTP] U.S. Food and Drug Administration [FDA] Tox21 Assay Overview: Beta adrenergic receptors (Beta-ARs) belong to the G-protein coupled receptor (GPCR) superfamily, includes three subtypes - beta1, beta2, and beta3. Beta1-AR is the predominant receptor subtype expressed in the heart, and beta2-AR is expressed in the kidney, lung, blood vessel and in the heart, and beta3 is found in the adipocytes. Beta1 and 2 ARs couple to Gs protein and elevate cyclic adenosine mono phosphate (cAMP), which activates protein kinase A and leads to the downstream signaling responsible for the physiological actions. Beta-AR agonists or antagonists are the most prescribed therapeutic agents for heart failure and asthma, and these were one of the first target receptors for the rational drug design. Tox21 10K compound library was screened using the cAMP-Gs dynamic assay (Cisbio Bioassays, Shelton, CT) to identify agonists/antagonists of the Gs-coupled human adrenergic, beta2 receptor (ADRB2) in the CHO-ADRB2 cell line (Codex BioSolutions, Inc. Gaithersburg, MD), which stably over-expresses ADRB2. The principle of cAMP-Gs dynamic assay is based on HTRF technology, which facilitates the fluorescence resonance energy transfer (FRET) between donor Europium cryptate and acceptor d2-labeled cAMP. The cAMP generated within cells competes with the red acceptor, d2-labled cAMP, for binding to the monoclonal anti-cAMP-cryptate (Europium donor). An increase in intracellular cAMP leads to the disruption of FRET signal, and the signal is inversely proportional to the cAMP concentration. Propranolol HCl (Sigma-Aldrich, St. Louis, MO) was used as a positive control in the screening.
Tox21 Assay Protocol Summary: CHO-ADRB2 cells were dispensed at 1,000/well in 4uL assay medium into white/solid 1536-well plates (Greiner Bio-One North America Inc., Monroe, NC) using a Multidrop Combi dispenser (ThermoFisher Scientific, Waltham, MA). The assay plates were incubated at 37C and 5% CO2 for an overnight (18-20hr). Then positive control and test compounds dissolved in DMSO were transferred to the assay plates at 23nL using a Pintool station (Wako, San Diego, CA). Following the compound and positive control transfer, 1uL agonist-stimulation mix containing 1nM Isoproterenol HCl, 100uM IBMX and 25uM Ro-20-1724 was added to each well of the assay plates using BioRAPTR Flying Reagent Dispenser (FRD, Beckman Coulter, Brea, CA). The assay plates were incubated at room temperature for 0.5hr. Then 2.5ul each d2-labled cAMP and anti-cAMP-cryptate solutions were added separately to each well of the assay plates using an FRD and the assay plates were incubated at room temperature for 1hr. The fluorescence signal was measured at two different wavelengths (665nm and 615nm) using an Envision plate reader (Perkin Elmer, Shelton, CT). Data were expressed as the ratio of 665 nm/615 nm.
% is scaled to controls: 0 for no effect and ±100 for the full control effect; potency is read from the fitted curve at half-maximal effect.

SMILES | Potency | activity change, negative = inhibition
O=C1c2c(O)ccc([N+](=O)[O-])c2C(=O)c2c([N+](=O)[O-])ccc(O)c21 | inconclusive: 54 µM [falling, partial curve] | 
CN(C[C@@H](CC[N+]12CCC(C3CCCCC3)(CC1)CC2)c1ccc(Cl)c(Cl)c1)C(=O)c1cc(C(F)(F)F)cc(C(F)(F)F)c1 |  | inconclusive: -77.1%
C=CCCCCCCC=C | inactive | 
Cn1c(=O)cc(Oc2ccc(F)cc2F)c2cnc(NCC(C)(C)O)nc21 | inactive | 
CCCCCCCO |  | inconclusive: -14.4%
NC(=Nc1ccccc1)Nc1ccccc1 |  | inconclusive: -12.9%
C[n+]1c2cc(N)ccc2cc2ccc(N)cc21 (tested in a mixture with another compound) | inconclusive: 13.3 µM [falling, partial curve] | 
Nc1ccc2c(c1)C(=O)c1ccccc1C2=O | inconclusive: 54.5 µM [falling, partial curve, poor fit] | 
CCOC(=O)C(=O)CCc1ccccc1 | inactive | 
CN1CCCC(n2nc(Cc3ccc(Cl)cc3)c3ccccc3c2=O)CC1 (stereo not given) | inconclusive: 33.5 µM [inhibitor, single point] | 
CCC(C)Nc1ccc(NC(C)CC)cc1 (stereo not given) |  | inconclusive: -1.19%
CCN(C(=O)N(CC)c1ccccc1)c1ccccc1 | inactive | 
Cc1c(Cl)cccc1[N+](=O)[O-] |  | inconclusive: -0.709%
Nc1ccccc1O | inconclusive: 53.8 µM [falling, partial curve, poor fit] | 
CN1CCN(CCC(=O)N2c3ccccc3Sc3ccc(C(F)(F)F)cc32)CC1 | active: 29.8 µM | 
O=C1OC[C@H](Cc2cccc(O)c2)[C@H]1Cc1cccc(O)c1 | inactive | 
CCN=c1cc2oc3cc(NCC)c(C)cc3c(-c3ccccc3C(=O)OCC)c-2cc1C | inconclusive: 61.1 µM [rising, single point] | inconclusive: 6.85%
C/C=C1/CC2C=CC1C2 (stereo not given) |  | inconclusive: -24.8%
CC(=O)N/N=C/c1ccc([N+](=O)[O-])o1 |  | inconclusive: 8.74% [at 42.5 µM]
c1ccc(C(O[C@H]2CCCN(CCc3ccc4c(c3)OCO4)C2)c2ccccc2)cc1 | inconclusive: 29.8 µM [inhibitor] | 

Sorted by number of heavy atoms (low to high): 3 of the compounds above.
SMILES | Potency | activity change, negative = inhibition
CC(=O)N/N=C/c1ccc([N+](=O)[O-])o1 |  | inconclusive: 8.74% [at 42.5 µM]
CCC(C)Nc1ccc(NC(C)CC)cc1 (stereo not given) |  | inconclusive: -1.19%
CCN=c1cc2oc3cc(NCC)c(C)cc3c(-c3ccccc3C(=O)OCC)c-2cc1C | inconclusive: 61.1 µM [rising, single point] | inconclusive: 6.85%

Continuation.

SMILES | Potency | activity change, negative = inhibition
CCN=C1C=CC(=C(c2ccc(N(CC)CC)cc2)c2ccc(N(CC)CC)cc2)c2ccccc21 | inconclusive: 34.2 µM [falling, partial curve] | 
CN1CCC(=C2c3ccccc3Sc3ccccc32)CC1 | inconclusive: 33.5 µM [inhibitor, single point] | 
O=C(Oc1ccccc1)c1cccc(C(=O)Oc2ccccc2)c1 | inconclusive: 7.23 µM [inhibitor, single point] | 
NNC(=O)c1ccncc1 | inconclusive: 1.37 µM [falling, single point] | 
CC(C)(C)c1csc(-c2cc3cc(OCc4ccccc4CC(=O)O)ccc3o2)n1 |  | inconclusive: -39.4%
CCN(CC)c1ccc(C(=C2C=CC(=[N+](CC)CC)C=C2)c2ccc(S(=O)(=O)O)cc2S(=O)(=O)[O-])cc1 | inconclusive: 8.63 µM [falling, full curve] | 
CCc1ccccc1 | inactive | 
COC(=O)[C@]1(C)CCC[C@@]2(C)[C@H]1CC=C1C=C(C(C)C)CC[C@@H]12 | inactive | 
FC(F)(F)/C(=N\OCC1OCCO1)c1ccc(Cl)cc1 | inactive | 
CCCCOCCOCCOCCO | active: 30.3 µM | 
C[C@@H](CN(C)C)CN1c2ccccc2Sc2ccccc21 | active: 29.8 µM | 
Cc1cc(C2(c3cc(C)c(O)cc3C)OS(=O)(=O)c3ccccc32)c(C)cc1O | inconclusive: 68.6 µM [falling, single point] | 
Cc1cc(C(=C2C=CC(=Nc3ccc(S(=O)(=O)O)cc3S(=O)(=O)O)C=C2)c2ccc(Nc3ccc(S(=O)(=O)O)cc3)cc2)ccc1N | inconclusive: 50.1 µM | 
CCCCCN=C(N)N/N=C/c1c[nH]c2ccc(OC)cc12 | active: 26.6 µM | 
O=C(c1ccc(O)cc1)c1ccc(O)cc1O | inconclusive: 77.7 µM [falling, single point] | 
CO[C@@]12[C@H](COC(N)=O)C3=C(C(=O)C(C)=C(N)C3=O)N1C[C@@H]1N[C@@H]12 |  | inconclusive: -27.9% [at 42.5 µM]
COc1ccccc1N1CCN(CC(O)COc2cccc3ccccc23)CC1 (stereo not given) | active: 2.11 µM | 
O=C1C=CC(=O)O1 | inactive | 
Cc1cccc(C)c1NC(=O)CN(CC(=O)O)CC(=O)O | inactive | 
